{"source": "the supplement of paper PMC12889115", "test_system": "Salmonella enterica serovar Typhimurium SL1344", "assay": "bacterial growth OD600 after 18 h with compound and polymyxin B; higher = more bacterial growth (less inhibition)", "details": "50 µM, Mueller-Hinton broth", "note": "The other results are listed elsewhere or left out. Values are raw readings; no control value is given beside them.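 First-pass screen: polymyxin B was added at a level that permeabilizes the Salmonella outer membrane while sparing the inner membrane. DMSO wells, with and without polymyxin B, defined maximum growth. Because plates differed from one another, each plate's data were ranked separately and the compounds with the lowest OD600 were carried forward as hits.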", "data": [{"compound": "COCCc1nc2ccc(C(=O)NCCN3CCC(c4ccccc4)C3)cc2o1", "note": "(centres undefined)", "values": [{"measurement": "bacterial growth OD600", "setting": "polymyxin B 0.75 µg/mL", "value": 0.955}]}, {"compound": "CCC1CN(CCNC(=O)CC2NC(=O)c3ccccc32)Cc2cc(OC)ccc2O1", "note": "(centres undefined)", "values": [{"measurement": "bacterial growth OD600", "setting": "polymyxin B 0.75 µg/mL", "value": 0.918}]}, {"compound": "C=CCOc1ccccc1CN1CCC(C(Cc2ccccc2)N(CC)C(=O)C2CCOCC2)CC1", "note": "(centres undefined)", "values": [{"measurement": "bacterial growth OD600", "setting": "polymyxin B 0.75 µg/mL", "value": 0.941}]}, {"compound": "O=C(C1CCN(c2nc(-c3ccccc3)nc3c2CCC3)CC1)N1CCC(O)CC1", "values": [{"measurement": "bacterial growth OD600", "setting": "polymyxin B 1 µg/mL", "value": 0.802}]}, {"compound": "OC1CCCN(c2ccc(-c3nc(Cc4ccc(F)cc4)no3)cn2)C1", "note": "(centres undefined)", "values": [{"measurement": "bacterial growth OD600", "setting": "polymyxin B 0.75 µg/mL", "value": 0.512}]}, {"compound": "COCCN1CCN(C(=O)CC(c2ccccc2)c2ccccc2Cl)CC1", "note": "(centres undefined)", "values": [{"measurement": "bacterial growth OD600", "setting": "polymyxin B 1 µg/mL", "value": 0.83}]}, {"compound": "CC(C)S(=O)(=O)N1CCC(C2CCN(Cc3cccnc3)CC2)C1", "note": "(centres undefined)", "values": [{"measurement": "bacterial growth OD600", "setting": "polymyxin B 0.75 µg/mL", "value": 0.801}]}, {"compound": "CCOC(=O)C1(Cc2ccccc2F)CCCN(C(=O)c2csc(C(C)=O)c2)C1", "note": "(centres undefined)", "values": [{"measurement": "bacterial growth OD600", "setting": "polymyxin B 1 µg/mL", "value": 0.826}]}, {"compound": "CCCC1(C2CCN(C(=O)C3=CCCC3)CC2)NC(=O)N(CCc2ccccn2)C1=O", "note": "(centres undefined)", "values": [{"measurement": "bacterial growth OD600", "setting": "polymyxin B 0.75 µg/mL", "value": 0.965}]}, {"compound": "CCOC(=O)N1CCN(c2ccc(-c3nc(C4CC4)no3)cn2)CC1", "values": [{"measurement": "bacterial growth OD600", "setting": "polymyxin B 0.75 µg/mL", "value": 0.475}]}, {"compound": "Cc1ccccc1CC1(CO)CCCN(Cc2ccccc2Cl)C1", "note": "(centres undefined)", "values": [{"measurement": "bacterial growth OD600", "setting": "polymyxin B 1 µg/mL", "value": 0.026}]}, {"compound": "CN(C)CCNC(=O)c1ccc(OC2CCN(C(=O)CCC3(C)CC3)CC2)c(Cl)c1", "values": [{"measurement": "bacterial growth OD600", "setting": "polymyxin B 0.75 µg/mL", "value": 0.8}]}, {"compound": "CC1(C)CC(Nc2nc3nonc3nc2NCc2cccs2)CCO1", "note": "(centres undefined)", "values": [{"measurement": "bacterial growth OD600", "setting": "polymyxin B 1 µg/mL", "value": 0.882}]}, {"compound": "CC(=O)N1CCC(N2CCCC(CCc3cccc(C(F)(F)F)c3)C2)CC1", "note": "(centres undefined)", "values": [{"measurement": "bacterial growth OD600", "setting": "polymyxin B 0.75 µg/mL", "value": 0.798}]}, {"compound": "CCOC(=O)N1CCC(NC2CCN(c3ccc(NC(=O)Cc4cccc(F)c4)cc3)CC2)CC1", "values": [{"measurement": "bacterial growth OD600", "setting": "polymyxin B 0.75 µg/mL", "value": 0.918}]}, {"compound": "COc1cc(OC)c2nc(-c3cc4c(c(OC)c3)OCCN(C(=O)Cc3cc(OC)c(OC)c(OC)c3)C4)cc(C)c2c1", "values": [{"measurement": "bacterial growth OD600", "setting": "polymyxin B 0.75 µg/mL", "value": 0.862}]}, {"compound": "CCCCNCc1ccc(OCC(O)CN2CCSCC2)c(OC)c1", "note": "(centres undefined)", "values": [{"measurement": "bacterial growth OD600", "setting": "polymyxin B 1 µg/mL", "value": 0.98}]}, {"compound": "O=C(c1cnc[nH]1)N1CCC2(CCCN(CCC3CCCCC3)C2)C1", "note": "(centres undefined)", "values": [{"measurement": "bacterial growth OD600", "setting": "polymyxin B 1 µg/mL", "value": 1.03}]}, {"compound": "COc1ccccc1CCN1CCC(CN(C)C(=O)c2ccc(F)cc2F)CC1", "values": [{"measurement": "bacterial growth OD600", "setting": "polymyxin B 1 µg/mL", "value": 1.24}]}]}
